Source: PMC4948682
No constants are given. Whether binding was seen depends on the method and setting. Binding seen in cells or lysates may run through a third protein. Some results given as binding are weak or reduced against the parent protein; the word gives no strength. Where a sequence is shown, tags or fusion partners need not be part of it.

Amino acid sequences for entries named in this document (tags omitted).
UniProt P35222: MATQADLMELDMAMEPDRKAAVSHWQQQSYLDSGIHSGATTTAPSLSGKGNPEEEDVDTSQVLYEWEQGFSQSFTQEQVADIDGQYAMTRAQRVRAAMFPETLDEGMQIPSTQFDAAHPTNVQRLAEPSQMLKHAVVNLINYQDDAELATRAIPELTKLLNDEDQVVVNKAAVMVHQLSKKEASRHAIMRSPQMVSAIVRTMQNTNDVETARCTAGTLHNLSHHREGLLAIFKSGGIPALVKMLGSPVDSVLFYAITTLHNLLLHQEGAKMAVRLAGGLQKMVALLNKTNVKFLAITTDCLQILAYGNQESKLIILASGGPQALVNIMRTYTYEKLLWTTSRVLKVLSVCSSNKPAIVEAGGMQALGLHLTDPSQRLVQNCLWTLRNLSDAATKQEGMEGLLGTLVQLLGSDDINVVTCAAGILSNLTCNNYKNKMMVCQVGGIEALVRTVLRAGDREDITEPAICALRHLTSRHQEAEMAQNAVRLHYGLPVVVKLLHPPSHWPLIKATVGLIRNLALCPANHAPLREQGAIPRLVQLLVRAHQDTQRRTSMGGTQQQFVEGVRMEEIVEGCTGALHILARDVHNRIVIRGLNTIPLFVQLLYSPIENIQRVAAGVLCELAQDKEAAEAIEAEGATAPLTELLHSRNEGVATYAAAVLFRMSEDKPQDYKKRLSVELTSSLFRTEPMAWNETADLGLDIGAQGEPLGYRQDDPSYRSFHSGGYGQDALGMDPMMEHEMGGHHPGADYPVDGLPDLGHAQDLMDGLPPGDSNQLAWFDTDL

T1: GST-SR 1-3 (nesprin-2 spectrin repeats 1-3, amino acids 279-531) (UniProt Q8WXH0)
T1 sequence: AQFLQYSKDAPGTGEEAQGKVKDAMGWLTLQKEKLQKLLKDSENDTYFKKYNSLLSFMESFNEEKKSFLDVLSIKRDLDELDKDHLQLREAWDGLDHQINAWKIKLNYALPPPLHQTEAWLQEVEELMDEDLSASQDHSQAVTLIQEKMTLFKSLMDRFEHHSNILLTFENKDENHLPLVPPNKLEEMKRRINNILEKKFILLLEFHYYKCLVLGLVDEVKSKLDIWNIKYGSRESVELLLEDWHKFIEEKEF

T2: GFP-ABDN2 (N-terminal nesprin-2 fragment, amino acids 1-531) (UniProt Q8WXH0)
T2 sequence: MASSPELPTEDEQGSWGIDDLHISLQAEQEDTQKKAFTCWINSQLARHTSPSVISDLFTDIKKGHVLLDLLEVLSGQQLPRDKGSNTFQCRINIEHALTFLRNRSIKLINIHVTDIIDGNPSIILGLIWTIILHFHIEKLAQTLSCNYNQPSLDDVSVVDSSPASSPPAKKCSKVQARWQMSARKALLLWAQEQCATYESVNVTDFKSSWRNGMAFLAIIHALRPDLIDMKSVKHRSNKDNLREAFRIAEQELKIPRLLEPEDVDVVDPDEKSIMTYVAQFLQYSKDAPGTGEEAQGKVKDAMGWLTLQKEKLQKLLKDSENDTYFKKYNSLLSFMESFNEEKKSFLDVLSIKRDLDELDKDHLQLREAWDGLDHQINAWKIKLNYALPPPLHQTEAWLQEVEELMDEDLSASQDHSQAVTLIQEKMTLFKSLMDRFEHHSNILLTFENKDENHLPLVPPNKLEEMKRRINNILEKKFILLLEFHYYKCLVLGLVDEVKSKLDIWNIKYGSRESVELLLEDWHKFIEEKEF

B1: GFP-ABDN2 (N-terminal nesprin-2 fragment, amino acids 1-531) (domain or fragment, UniProt Q8WXH0 1-531)
chain: T2 sequence

Tests used:
[1] = biological target: T1, GST-SR 1-3 (nesprin-2 spectrin repeats 1-3, amino acids 279-531); test: pull-down; GST alone or GST-SR 1-3 as bait; Western blot for β-catenin; GST loading by Coomassie stain; method as described previously (ref. 14); only the target purified
[2] = biological target: T2, GFP-ABDN2 (N-terminal nesprin-2 fragment, amino acids 1-531); test: co-IP; U2OS cells transfected with GFP or GFP-ABDN2 overnight; GFP precipitated with anti-GFP coated Sepharose beads, 2 h at 4 °C; washed three times in IP buffer; Western blot for β-catenin
[3] = biological target: β-catenin (human (endogenous in U2OS)) (UniProt P35222); test: co-IP; β-catenin IP from U2OS cells transfected with GFP-ABDN2; Western blot

| Molecule | binding [1] | binding [2] | binding [3] |
| --- | --- | --- | --- |
| β-catenin (from UniProt P35222 1-781) | binds | binds | – |
| B1 | – | – | binds |
